Some of the results follow.
What was measured:
Assay in all cases: log2 fold change, soluble protein after heating vs DMSO (PISA); higher = thermal stabilisation; K562 lysate, 10 uM; active = over 0.2 and 3.5 SD of the protein, either way, in both replicates (recomputed)
ibrutinib = compound: C=CC(=O)N1CCC[C@@H](n2nc(-c3ccc(Oc4ccccc4)cc3)c3c(N)ncnc32)C1 [ibrutinib]
Summary of the method: (§1)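 Soluble protein was defined as the supernatant remaining after 21,000xg for 90 min, following pooling of heated aliquots and adjustment to 0.5% NP-40 at 4°C. Before that, crude K562 extract at 1 mg/mL protein in PBS pH 7.4 with 1 mM MgCl2 was treated with 10 μM compound for 30 min and heated for 3 min across 48°C-58°C. Quantification used TMTpro 16plex LC-MS/MS with channel sums equalised, and values are log-two fold changes in thermal stability relative to solvent controls from duplicates.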

Sequences of proteins named here, by UniProt entry; tags and fusion partners are left off. A change or cut given only in a name is not applied to a line headed by its entry.
UniProt Q9UJ41, whole entry, looked up: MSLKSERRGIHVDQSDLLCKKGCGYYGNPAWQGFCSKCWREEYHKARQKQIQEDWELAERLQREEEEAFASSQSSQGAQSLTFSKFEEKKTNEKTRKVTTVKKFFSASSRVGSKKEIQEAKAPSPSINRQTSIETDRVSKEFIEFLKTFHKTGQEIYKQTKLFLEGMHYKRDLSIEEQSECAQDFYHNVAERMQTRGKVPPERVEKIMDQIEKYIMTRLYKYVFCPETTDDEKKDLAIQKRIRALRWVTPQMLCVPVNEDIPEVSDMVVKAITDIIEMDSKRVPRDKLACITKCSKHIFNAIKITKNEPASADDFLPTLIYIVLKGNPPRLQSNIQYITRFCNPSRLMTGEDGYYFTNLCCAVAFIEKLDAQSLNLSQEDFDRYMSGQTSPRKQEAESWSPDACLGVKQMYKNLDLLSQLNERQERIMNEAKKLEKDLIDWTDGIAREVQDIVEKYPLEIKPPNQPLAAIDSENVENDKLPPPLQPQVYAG
UniProt P54727: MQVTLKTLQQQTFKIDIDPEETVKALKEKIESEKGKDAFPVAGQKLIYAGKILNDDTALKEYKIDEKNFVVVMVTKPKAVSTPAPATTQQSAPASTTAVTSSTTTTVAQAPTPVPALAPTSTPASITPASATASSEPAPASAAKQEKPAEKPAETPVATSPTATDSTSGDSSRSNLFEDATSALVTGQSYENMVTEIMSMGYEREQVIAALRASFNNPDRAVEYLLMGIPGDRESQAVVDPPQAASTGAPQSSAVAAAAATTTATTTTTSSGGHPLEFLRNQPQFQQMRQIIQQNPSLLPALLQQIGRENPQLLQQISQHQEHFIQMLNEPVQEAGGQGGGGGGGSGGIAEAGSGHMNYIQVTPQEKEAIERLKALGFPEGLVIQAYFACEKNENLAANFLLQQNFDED
UniProt Q13637: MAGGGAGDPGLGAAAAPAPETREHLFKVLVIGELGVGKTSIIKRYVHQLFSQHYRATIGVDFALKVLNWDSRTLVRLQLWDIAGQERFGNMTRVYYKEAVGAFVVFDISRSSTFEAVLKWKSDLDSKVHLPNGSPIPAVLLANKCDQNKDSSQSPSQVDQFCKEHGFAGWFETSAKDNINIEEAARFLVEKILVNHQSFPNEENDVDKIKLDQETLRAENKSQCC
UniProt Q6WKZ4: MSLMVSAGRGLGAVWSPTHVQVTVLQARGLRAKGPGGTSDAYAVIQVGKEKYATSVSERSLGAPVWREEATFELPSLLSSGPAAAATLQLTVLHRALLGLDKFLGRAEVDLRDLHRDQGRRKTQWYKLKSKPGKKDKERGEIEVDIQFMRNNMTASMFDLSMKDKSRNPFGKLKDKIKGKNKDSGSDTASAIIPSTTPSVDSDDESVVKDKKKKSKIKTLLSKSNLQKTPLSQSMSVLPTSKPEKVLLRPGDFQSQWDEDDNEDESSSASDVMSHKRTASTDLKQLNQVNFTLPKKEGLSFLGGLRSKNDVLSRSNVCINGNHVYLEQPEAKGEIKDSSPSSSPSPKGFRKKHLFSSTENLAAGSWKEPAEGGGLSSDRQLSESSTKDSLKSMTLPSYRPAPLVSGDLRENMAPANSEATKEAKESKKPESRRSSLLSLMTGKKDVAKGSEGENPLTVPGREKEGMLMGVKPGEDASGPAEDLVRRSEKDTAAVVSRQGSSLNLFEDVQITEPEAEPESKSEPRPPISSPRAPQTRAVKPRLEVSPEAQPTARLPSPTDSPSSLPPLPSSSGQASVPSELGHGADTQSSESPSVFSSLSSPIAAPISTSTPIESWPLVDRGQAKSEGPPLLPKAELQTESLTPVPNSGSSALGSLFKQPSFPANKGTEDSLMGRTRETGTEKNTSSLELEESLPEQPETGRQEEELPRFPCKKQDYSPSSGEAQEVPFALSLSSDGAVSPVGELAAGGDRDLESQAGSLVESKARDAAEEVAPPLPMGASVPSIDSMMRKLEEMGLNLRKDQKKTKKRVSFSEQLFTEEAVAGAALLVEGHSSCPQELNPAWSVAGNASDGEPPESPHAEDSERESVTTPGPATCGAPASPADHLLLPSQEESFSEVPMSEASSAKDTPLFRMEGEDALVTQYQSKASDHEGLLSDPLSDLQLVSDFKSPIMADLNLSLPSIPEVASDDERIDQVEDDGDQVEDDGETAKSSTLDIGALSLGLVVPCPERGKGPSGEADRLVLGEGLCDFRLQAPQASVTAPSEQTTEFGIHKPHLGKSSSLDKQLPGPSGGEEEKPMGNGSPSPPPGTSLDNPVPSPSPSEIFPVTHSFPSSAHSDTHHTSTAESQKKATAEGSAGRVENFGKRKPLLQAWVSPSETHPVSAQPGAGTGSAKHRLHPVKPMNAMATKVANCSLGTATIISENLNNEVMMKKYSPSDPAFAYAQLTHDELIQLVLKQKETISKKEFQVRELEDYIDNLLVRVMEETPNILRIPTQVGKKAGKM
UniProt P43487, whole entry, looked up: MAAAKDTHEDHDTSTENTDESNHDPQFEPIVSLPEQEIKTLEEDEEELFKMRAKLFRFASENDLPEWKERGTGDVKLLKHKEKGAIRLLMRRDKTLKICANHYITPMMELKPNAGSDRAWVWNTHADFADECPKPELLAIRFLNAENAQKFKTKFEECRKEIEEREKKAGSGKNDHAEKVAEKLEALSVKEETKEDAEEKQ
UniProt P51148: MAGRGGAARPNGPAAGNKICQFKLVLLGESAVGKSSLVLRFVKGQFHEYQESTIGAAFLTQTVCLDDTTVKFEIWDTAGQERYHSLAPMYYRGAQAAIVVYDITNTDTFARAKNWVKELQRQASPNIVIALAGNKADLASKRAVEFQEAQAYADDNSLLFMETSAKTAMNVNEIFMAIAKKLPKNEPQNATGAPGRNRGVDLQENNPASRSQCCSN
UniProt Q9NXS2: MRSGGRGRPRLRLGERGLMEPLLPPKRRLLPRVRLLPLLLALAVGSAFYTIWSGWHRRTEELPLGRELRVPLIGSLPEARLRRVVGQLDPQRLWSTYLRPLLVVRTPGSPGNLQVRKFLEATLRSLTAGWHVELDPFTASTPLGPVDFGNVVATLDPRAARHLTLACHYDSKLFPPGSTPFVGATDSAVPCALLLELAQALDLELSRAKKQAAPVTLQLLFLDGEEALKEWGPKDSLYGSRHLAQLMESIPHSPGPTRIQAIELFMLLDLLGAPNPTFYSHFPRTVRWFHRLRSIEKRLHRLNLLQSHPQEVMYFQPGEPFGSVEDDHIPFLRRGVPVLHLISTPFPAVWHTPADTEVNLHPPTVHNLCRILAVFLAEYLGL
UniProt O43502: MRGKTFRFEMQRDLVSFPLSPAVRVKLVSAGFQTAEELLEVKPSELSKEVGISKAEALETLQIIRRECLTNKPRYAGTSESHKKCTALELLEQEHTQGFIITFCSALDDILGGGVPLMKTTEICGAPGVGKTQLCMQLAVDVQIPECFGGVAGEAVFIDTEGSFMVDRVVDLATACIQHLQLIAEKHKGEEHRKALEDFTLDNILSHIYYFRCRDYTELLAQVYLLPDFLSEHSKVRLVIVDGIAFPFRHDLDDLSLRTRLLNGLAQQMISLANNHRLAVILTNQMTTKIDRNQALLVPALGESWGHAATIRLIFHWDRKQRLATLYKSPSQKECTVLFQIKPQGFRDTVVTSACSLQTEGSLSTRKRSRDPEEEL
UniProt Q53H96: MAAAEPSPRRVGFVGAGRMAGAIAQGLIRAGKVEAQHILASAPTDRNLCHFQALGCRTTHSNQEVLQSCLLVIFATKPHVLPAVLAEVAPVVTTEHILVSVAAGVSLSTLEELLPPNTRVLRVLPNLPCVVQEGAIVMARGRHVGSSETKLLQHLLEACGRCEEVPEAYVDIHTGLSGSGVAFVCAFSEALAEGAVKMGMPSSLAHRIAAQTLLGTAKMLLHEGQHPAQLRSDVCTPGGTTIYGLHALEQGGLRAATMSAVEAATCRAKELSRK
UniProt Q8TBN0: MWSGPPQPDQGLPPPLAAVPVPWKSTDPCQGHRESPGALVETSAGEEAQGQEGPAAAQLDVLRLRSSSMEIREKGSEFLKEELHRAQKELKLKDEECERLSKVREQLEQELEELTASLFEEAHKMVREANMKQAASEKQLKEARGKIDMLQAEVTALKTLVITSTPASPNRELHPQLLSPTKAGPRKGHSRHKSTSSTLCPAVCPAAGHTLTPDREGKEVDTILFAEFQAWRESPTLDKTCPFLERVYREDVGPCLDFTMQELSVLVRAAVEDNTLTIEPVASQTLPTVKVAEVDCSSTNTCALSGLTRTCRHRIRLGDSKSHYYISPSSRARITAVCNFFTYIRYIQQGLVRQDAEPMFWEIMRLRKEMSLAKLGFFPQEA
UniProt Q15274: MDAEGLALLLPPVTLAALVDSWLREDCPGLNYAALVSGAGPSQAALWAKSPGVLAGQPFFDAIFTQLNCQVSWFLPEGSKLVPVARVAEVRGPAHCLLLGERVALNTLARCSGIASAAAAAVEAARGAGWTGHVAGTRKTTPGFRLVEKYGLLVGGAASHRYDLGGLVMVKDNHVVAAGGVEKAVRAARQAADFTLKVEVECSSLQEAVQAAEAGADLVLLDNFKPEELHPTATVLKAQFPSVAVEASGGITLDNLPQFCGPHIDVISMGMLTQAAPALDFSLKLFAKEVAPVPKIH
UniProt P51151: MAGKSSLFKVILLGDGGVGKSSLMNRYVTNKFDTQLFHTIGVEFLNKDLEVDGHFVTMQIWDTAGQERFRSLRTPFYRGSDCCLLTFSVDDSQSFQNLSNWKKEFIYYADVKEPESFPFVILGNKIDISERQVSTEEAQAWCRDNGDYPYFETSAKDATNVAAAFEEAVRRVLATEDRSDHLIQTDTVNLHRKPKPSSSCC
UniProt Q96PU8: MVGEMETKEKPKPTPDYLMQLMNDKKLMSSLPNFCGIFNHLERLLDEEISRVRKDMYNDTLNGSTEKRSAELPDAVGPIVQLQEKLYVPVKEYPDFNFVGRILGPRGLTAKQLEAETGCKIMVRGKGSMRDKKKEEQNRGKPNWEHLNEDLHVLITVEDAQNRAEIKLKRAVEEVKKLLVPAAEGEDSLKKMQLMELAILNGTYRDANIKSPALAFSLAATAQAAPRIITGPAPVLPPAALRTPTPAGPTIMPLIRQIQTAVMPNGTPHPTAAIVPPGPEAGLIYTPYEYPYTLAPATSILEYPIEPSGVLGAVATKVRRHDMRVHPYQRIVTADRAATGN
UniProt P61026: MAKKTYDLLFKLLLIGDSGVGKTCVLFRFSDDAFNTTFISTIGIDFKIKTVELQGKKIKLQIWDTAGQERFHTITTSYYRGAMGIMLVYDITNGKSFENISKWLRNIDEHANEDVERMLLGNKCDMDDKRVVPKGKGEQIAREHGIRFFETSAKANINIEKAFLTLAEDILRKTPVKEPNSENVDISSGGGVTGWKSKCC
UniProt P20339: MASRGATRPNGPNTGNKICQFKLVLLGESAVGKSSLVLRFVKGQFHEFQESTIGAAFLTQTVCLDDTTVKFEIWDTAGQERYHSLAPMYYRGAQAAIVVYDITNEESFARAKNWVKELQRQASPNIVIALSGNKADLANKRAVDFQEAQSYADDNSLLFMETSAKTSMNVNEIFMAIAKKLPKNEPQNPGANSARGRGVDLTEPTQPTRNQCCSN

[1] = compound: CC(=O)c1cnc2ccc(-c3cc(Cl)c(O)c(Cl)c3)nc2c1N[C@H]1CC[C@H](CN(C)C)CC1
Summary of the method: as §1

ralimetinib = compound: CC(C)(C)Cn1c(N)nc2ccc(-c3[nH]c(C(C)(C)C)nc3-c3ccc(F)cc3)nc21 [ralimetinib]
Summary of the method: as §1

[2] = compound: CC(C)(O)CC(=O)NCCn1ccc2ncnc(Nc3ccc(Oc4cccc(C(F)(F)F)c4)c(Cl)c3)c21
Summary of the method: as §1

[3] = compound: CC(C)C1=C2N=C(C=C(N2N=C1)NCC3=CC=CC=C3)NCCCCCCN
Summary of the method: as §1

[4] = compound: CC1=C(C(CC(=O)N1)C2=CC=C(C=C2)C(F)(F)F)C(=O)NC3=C(C=C4C(=C3)C=NN4)F
Summary of the method: as §1

[5] = compound: CC1=C(C2=C(C=C1)C(=O)C3=CC=CC=C3N2CCCN)C
Summary of the method: as §1

[6] = compound: CC1=C(C=C(C=C1)NC(=O)C2=CC(=CC=C2)C(C)(C)C#N)NC3=CC4=C(C=C3)N=CN(C4=O)C
Summary of the method: as §1

[7] = compound: CC1=C(C=C(C=C1)NC(=O)C2=CC(=CC=C2)N(C)C)NC(=O)C3=CC=C(C=C3)O
Summary of the method: as §1

[8] = compound: CC1=CC=C(C=C1)SC2=C3C=C(SC3=CN=C2)C(=O)N
Summary of the method: as §1

vemurafenib = compound: CCCS(=O)(=O)Nc1ccc(F)c(C(=O)c2c[nH]c3ncc(-c4ccc(Cl)cc4)cc23)c1F [vemurafenib]
Summary of the method: as §1

[9] = compound: CCCS(=O)(=O)Nc1ccc(F)c(C(=O)c2c[nH]c3ncc(Cl)cc23)c1F
Summary of the method: as §1

barasertib = compound: CCN(CCCOc1ccc2c(Nc3cc(CC(=O)Nc4cccc(F)c4)[nH]n3)ncnc2c1)CCOP(=O)(O)O [barasertib]
Summary of the method: as §1

[10] = compound: CC[C@@H]1C(=O)N(C)c2cnc(Nc3ccc(C(=O)NC4CCN(C)CC4)cc3OC)nc2N1C1CCCC1
Summary of the method: as §1

volasertib = compound: CC[C@@H]1C(=O)N(C)c2cnc(Nc3ccc(C(=O)N[C@H]4CC[C@H](N5CCN(CC6CC6)CC5)CC4)cc3OC)nc2N1C(C)C [volasertib]
Summary of the method: as §1

[11] = compound: CCn1c(C(=O)N(C2CC2)C2CC2)cc2c3c(ncn3C)c(Nc3cc(C)n(C)n3)nc21
Summary of the method: as §1

[12] = compound: CCn1cc(-c2ccnc3[nH]c(-c4cccc(CN(C)C)c4)cc23)c(-c2ccc(NC(=O)N(C)C)cc2)n1
Summary of the method: as §1

[13] = compound: CN1CCC(CNc2ccc3ncc(-c4cccc(OC(F)(F)F)c4)n3n2)CC1
Summary of the method: as §1

saracatinib = compound: CN1CCN(CCOc2cc(OC3CCOCC3)c3c(Nc4c(Cl)ccc5c4OCO5)ncnc3c2)CC1 [saracatinib]
Summary of the method: as §1

sotrastaurin = compound: CN1CCN(c2nc(C3=C(c4c[nH]c5ccccc45)C(=O)NC3=O)c3ccccc3n2)CC1 [sotrastaurin]
Summary of the method: as §1

Measured: log2 fold change

RABGEF1 isoform 3 (UniProt Q9UJ41)
inactive: ibrutinib -0.003 | [1] -0.006 | ralimetinib -0.004 | [2] -0.015 | [3] -0.035 | [4] -0.016 | [5] -0.021 | [6] -0.002 | [7] 0.014 | [8] -0.024 | vemurafenib -0.014 | [9] 0 | barasertib -0.023 | [10] -0.037 | volasertib 0.004 | [11] -0.014 | [12] -0.06 | [13] -0.023 | saracatinib -0.062 | sotrastaurin 0

RAD23B (UniProt P54727)
inactive: ibrutinib -0.011 | [1] 0.005 | ralimetinib 0.004 | [2] -0.012 | [3] -0.016 | [4] -0.029 | [5] -0.015 | [6] 0.031 | [7] 0.013 | [8] -0.034 | vemurafenib 0.002 | [9] -0.02 | barasertib 0.057 | [10] 0.024 | volasertib 0.024 | [11] -0.034 | [12] -0.007 | [13] 0.03 | saracatinib -0.007 | sotrastaurin -0.006

RAB32 (UniProt Q13637)
inactive: ibrutinib 0.08 | [1] 0.037 | ralimetinib -0.008 | [2] -0.025 | [3] 0.008 | [4] 0.045 | [5] 0 | [6] 0.027 | [7] 0.01 | [8] -0.043 | vemurafenib -0.054 | [9] 0.055 | barasertib 0.037 | [10] 0.04 | volasertib 0.083 | [11] -0.035 | [12] -0.202 | [13] 0.115 | saracatinib 0.006 | sotrastaurin 0.012

R3HCC1L, A0A384DVK4
inactive: ibrutinib -0.04 | [1] -0.051 | ralimetinib 0.06 | [2] -0.026 | [3] 0.08 | [4] 0.009 | [5] 0 | [6] 0.011 | [7] 0.012 | [8] -0.003 | vemurafenib 0.191 | [9] -0.017 | barasertib 0.048 | [10] -0.087 | volasertib -0.008 | [11] -0.003 | [12] 0.261 | [13] 0.019 | saracatinib 0.024 | sotrastaurin 0

RAB11FIP1 (UniProt Q6WKZ4)
inactive: ibrutinib 0.015 | [1] -0.011 | ralimetinib 0.031 | [2] -0.012 | [3] 0.003 | [4] 0.004 | [5] 0.001 | [6] 0.02 | [7] 0.033 | [8] -0.002 | vemurafenib -0.003 | [9] 0.013 | barasertib 0.011 | [10] 0.055 | volasertib -0.033 | [11] 0.01 | [12] 0.033 | [13] -0.091 | saracatinib 0.033 | sotrastaurin 0.023

Quoted at random: 2 records from the list
R3HCC1L, A0A384DVK4
inactive: ibrutinib -0.04 | [1] -0.051 | ralimetinib 0.06 | [2] -0.026 | [3] 0.08 | [4] 0.009 | [5] 0 | [6] 0.011 | [7] 0.012 | [8] -0.003 | vemurafenib 0.191 | [9] -0.017 | barasertib 0.048 | [10] -0.087 | volasertib -0.008 | [11] -0.003 | [12] 0.261 | [13] 0.019 | saracatinib 0.024 | sotrastaurin 0

RAD23B (UniProt P54727)
inactive: ibrutinib -0.011 | [1] 0.005 | ralimetinib 0.004 | [2] -0.012 | [3] -0.016 | [4] -0.029 | [5] -0.015 | [6] 0.031 | [7] 0.013 | [8] -0.034 | vemurafenib 0.002 | [9] -0.02 | barasertib 0.057 | [10] 0.024 | volasertib 0.024 | [11] -0.034 | [12] -0.007 | [13] 0.03 | saracatinib -0.007 | sotrastaurin -0.006

(continued)

RANBP1 (UniProt P43487)
inactive: ibrutinib -0.045 | [1] 0.022 | ralimetinib -0.03 | [2] -0.004 | [3] 0.009 | [4] -0.031 | [5] 0.02 | [6] 0.01 | [7] -0.03 | [8] 0 | vemurafenib -0.015 | [9] -0.027 | barasertib -0.055 | [10] -0.024 | volasertib 0.035 | [11] -0.031 | [12] -0.012 | [13] 0.006 | saracatinib -0.016 | sotrastaurin -0.019

RAB5C isoform 2 (UniProt P51148)
inactive: ibrutinib -0.007 | [1] 0.014 | ralimetinib 0.018 | [2] -0.04 | [3] 0.004 | [4] 0.01 | [5] -0.004 | [6] -0.002 | [7] -0.009 | [8] 0.026 | vemurafenib 0.025 | [9] -0.018 | barasertib -0.01 | [10] 0.044 | volasertib 0.006 | [11] -0.016 | [12] -0.082 | [13] 0.092 | saracatinib 0.035 | sotrastaurin -0.008

QPCTL (UniProt Q9NXS2)
inactive: ibrutinib 0.097 | [1] 0.031 | ralimetinib 0.027 | [2] -0.023 | [3] -0.025 | [4] -0.076 | [5] -0.007 | [6] 0.075 | [7] -0.014 | [8] 0.056 | vemurafenib 0 | [9] -0.075 | barasertib -0.016 | [10] 0.055 | volasertib -0.023 | [11] -0.018 | [12] -0.018 | [13] -0.032 | saracatinib -0.002 | sotrastaurin -0.033

RAD51C (UniProt O43502)
inactive: ibrutinib -0.015 | [1] 0.055 | ralimetinib 0.044 | [2] 0.009 | [3] 0.067 | [4] -0.015 | [5] -0.039 | [6] 0 | [7] -0.037 | [8] -0.051 | vemurafenib -0.067 | [9] -0.01 | barasertib -0.011 | [10] -0.017 | volasertib 0.046 | [11] -0.038 | [12] -0.027 | [13] 0.027 | saracatinib 0.01 | sotrastaurin 0.027

PYCR3 (UniProt Q53H96)
inactive: ibrutinib 0.023 | [1] -0.003 | ralimetinib 0.007 | [2] 0.003 | [3] -0.03 | [4] -0.016 | [5] -0.042 | [6] 0.02 | [7] 0.007 | [8] 0.018 | vemurafenib -0.003 | [9] 0 | barasertib 0.045 | [10] -0.011 | volasertib 0.015 | [11] -0.012 | [12] 0.002 | [13] 0.004 | saracatinib -0.001 | sotrastaurin -0.024

RAB3IL1 (UniProt Q8TBN0)
inactive: ibrutinib 0.03 | [1] -0.035 | ralimetinib 0.021 | [2] -0.022 | [3] 0.004 | [4] 0.116 | [5] -0.006 | [6] 0.02 | [7] -0.024 | [8] 0.003 | vemurafenib -0.018 | [9] 0.017 | barasertib 0.054 | [10] 0.022 | volasertib -0.008 | [11] 0.054 | [12] 0.025 | [13] -0.016 | saracatinib 0.033 | sotrastaurin -0.024

QPRT (UniProt Q15274)
inactive: ibrutinib -0.013 | [1] 0.011 | ralimetinib -0.015 | [2] -0.057 | [3] -0.027 | [4] -0.02 | [5] -0.034 | [6] 0.026 | [7] -0.027 | [8] 0.002 | vemurafenib 0.024 | [9] 0.01 | barasertib 0.105 | [10] 0.024 | volasertib 0.043 | [11] 0.018 | [12] -0.03 | [13] 0 | saracatinib -0.012 | sotrastaurin -0.085

RAB9A (UniProt P51151)
inactive: ibrutinib 0.026 | [1] 0.009 | ralimetinib -0.021 | [2] 0.006 | [3] -0.031 | [4] 0.096 | [5] 0.029 | [6] -0.053 | [7] -0.015 | [8] 0.017 | vemurafenib -0.024 | [9] 0.008 | barasertib -0.006 | [10] 0.019 | volasertib -0.033 | [11] -0.029 | [12] -0.015 | [13] -0.011 | saracatinib 0.032 | sotrastaurin 0.036

QKI (UniProt Q96PU8)
inactive: ibrutinib -0.022 | [1] -0.012 | ralimetinib -0.023 | [2] -0.027 | [3] 0.029 | [4] 0.065 | [5] 0.069 | [6] -0.094 | [7] 0.009 | [8] -0.023 | vemurafenib -0.006 | [9] 0.024 | barasertib -0.027 | [10] 0.087 | volasertib -0.021 | [11] 0.001 | [12] -0.196 | [13] 0.107 | saracatinib 0.047 | sotrastaurin 0

RAB10 (UniProt P61026)
inactive: ibrutinib 0.003 | [1] -0.013 | ralimetinib -0.01 | [2] 0.017 | [3] 0.026 | [4] 0.038 | [5] 0.006 | [6] -0.051 | [7] -0.057 | [8] -0.017 | vemurafenib -0.024 | [9] -0.014 | barasertib 0.04 | [10] 0.038 | volasertib -0.001 | [11] -0.037 | [12] -0.016 | [13] 0.031 | saracatinib 0.02 | sotrastaurin 0.074

RAB5A (UniProt P20339)
inactive: ibrutinib -0.021 | [1] 0.005 | ralimetinib -0.033 | [2] -0.009 | [3] -0.003 | [4] 0.016 | [5] -0.036 | [6] 0.024 | [7] -0.031 | [8] -0.001 | vemurafenib -0.007 | [9] 0.012 | barasertib 0.02 | [10] 0.066 | volasertib 0.036 | [11] -0.074 | [12] -0.003 | [13] 0.001 | saracatinib 0.034 | sotrastaurin 0.017
